Data reported in publication PMC4034419.

Assays:
Assay in all cases: not stated (data not shown)
Conditions in all cases: 5 deoxyuridines (U at 6, 11, 14, 17 as printed; text states 5 uracils); 20 mM Tris-HCl pH 8.5, 10 mM KCl, 10 mM (NH4)2SO4 (ionic strength 40); 10 nM Hex primer-template; recombinant protein; single-stranded DNA
[1] = biological target: Pfu-Pol L381R/K502R (Pyrococcus furiosus) (UniProt P61875)
[2] = biological target: Pfu-Pol M247R/L381R (Pyrococcus furiosus) (UniProt P61875)
[3] = biological target: Pfu-Pol wild type (family-B DNA polymerase) (Pyrococcus furiosus) (UniProt P61875)
[4] = biological target: T1, Tkod-Pol wild type (family-B DNA polymerase) (Thermococcus kodakarensis) (UniProt D0VWU9)
T1 sequence (looked up, limits assumed): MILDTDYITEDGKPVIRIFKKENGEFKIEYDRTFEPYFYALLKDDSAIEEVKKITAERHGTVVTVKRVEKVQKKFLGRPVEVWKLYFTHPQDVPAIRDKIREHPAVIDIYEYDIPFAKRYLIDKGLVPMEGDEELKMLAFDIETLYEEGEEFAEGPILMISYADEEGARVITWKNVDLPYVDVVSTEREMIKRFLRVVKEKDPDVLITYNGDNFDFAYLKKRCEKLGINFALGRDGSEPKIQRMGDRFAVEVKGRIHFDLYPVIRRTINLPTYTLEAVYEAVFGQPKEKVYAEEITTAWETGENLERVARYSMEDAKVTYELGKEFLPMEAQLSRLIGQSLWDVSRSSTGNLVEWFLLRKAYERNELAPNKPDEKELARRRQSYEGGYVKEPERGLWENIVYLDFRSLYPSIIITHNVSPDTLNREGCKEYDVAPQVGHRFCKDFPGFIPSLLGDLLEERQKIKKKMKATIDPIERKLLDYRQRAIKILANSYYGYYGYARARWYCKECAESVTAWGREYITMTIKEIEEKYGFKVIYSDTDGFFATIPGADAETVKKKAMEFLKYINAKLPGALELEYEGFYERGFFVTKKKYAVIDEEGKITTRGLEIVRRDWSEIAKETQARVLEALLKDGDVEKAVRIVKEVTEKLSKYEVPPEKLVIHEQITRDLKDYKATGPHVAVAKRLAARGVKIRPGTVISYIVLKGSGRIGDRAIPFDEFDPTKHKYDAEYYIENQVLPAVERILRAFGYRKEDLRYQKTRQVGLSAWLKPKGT

Measured: binding result

GTTGGUACUCTUAGUCTUTAGGT [uracil-rich trap 23-mer]
binds: all assays above

Construct, isoform or probe ends are uncertain for at least one entry. At least one verdict was read from the data and is not stated in words by the source. For some of these results: Where a protein sequence is shown, tags need not be part of it.
